Results on one sequence are retold here after patent US5591825A, “Interleukin 4 signal transducers” (Tularik, Inc., priority 1994, dated 1997).

This data set concerns the target T1, IL-4 Stat (STAT6), activated, tyrosine-phosphorylated (Homo sapiens) (UniProt P42226).
T1 sequence: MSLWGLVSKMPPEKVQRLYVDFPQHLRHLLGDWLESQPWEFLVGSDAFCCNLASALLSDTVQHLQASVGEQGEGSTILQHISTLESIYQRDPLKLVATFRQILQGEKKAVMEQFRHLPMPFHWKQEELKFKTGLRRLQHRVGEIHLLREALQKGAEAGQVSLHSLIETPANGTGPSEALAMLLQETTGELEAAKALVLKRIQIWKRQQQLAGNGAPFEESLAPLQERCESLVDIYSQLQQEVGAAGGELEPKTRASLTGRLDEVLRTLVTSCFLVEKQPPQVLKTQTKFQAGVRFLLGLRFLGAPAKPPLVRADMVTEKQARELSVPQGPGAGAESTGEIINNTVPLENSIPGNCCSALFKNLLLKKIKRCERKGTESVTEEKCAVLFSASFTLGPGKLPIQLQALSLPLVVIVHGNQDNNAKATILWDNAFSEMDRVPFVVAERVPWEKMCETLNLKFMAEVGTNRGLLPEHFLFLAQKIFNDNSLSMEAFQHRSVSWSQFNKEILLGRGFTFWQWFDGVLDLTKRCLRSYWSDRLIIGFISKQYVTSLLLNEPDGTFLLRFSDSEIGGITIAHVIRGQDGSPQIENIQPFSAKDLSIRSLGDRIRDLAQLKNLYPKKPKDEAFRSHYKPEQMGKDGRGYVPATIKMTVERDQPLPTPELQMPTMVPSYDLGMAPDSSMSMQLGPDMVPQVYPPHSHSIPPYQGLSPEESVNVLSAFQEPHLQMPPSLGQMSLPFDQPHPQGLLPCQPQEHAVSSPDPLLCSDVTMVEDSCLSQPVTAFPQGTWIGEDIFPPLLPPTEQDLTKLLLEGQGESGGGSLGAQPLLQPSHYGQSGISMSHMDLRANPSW
The data set is described as follows: EMSA. The settings on record: binding abolished by IL-4R phosphopeptides (Y578, Y606; complete inhibition at 300 uM), not by unphosphorylated peptides or IFN-g receptor phosphopeptide; purified native protein.

Construct, isoform or probe ends are uncertain for at least one entry. Protein sequences can lack the tags named with them.

For “GTATTTCCCAGAAAAGGAAC (double strand) [IL-4 response element upstream of human FcgRI gene]”, the binding result is reported as “binds”.
